These results are taken from PubChem BioAssay AID493014 (National Center for Advancing Translational Sciences (NCATS), 2011).

This test can be described thus: qHTS Assay to Find Inhibitors of Chronic Active B-Cell Receptor Signaling. Particulars: ABC-DLBCL IkBa-CBG/CBR reporter, luminescence ratio (green luciferase fused to IkBa over red control in TMD8 lymphoma cells), 4 h. The method in brief:
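TMD8 ABC-DLBCL cells carrying doxycycline-inducible green luciferase fused to IkappaBalpha plus unfused red luciferase were exposed to compounds (up to 46 uM) for 4 hrs at 37C. Activity came from the overlap-corrected green/red luminescence ratio.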

The mark [1] stands for this setting: measured here: CBR red luminescence, cell number.
Setting [2] is: measured here: IkBa-CBG green luminescence.

SMILES strings stand for the structures. The list shows a part of the results. Further columns of the screen follow, without active or inactive calls. The list favours compounds with an active or inconclusive main result. Potencies come from curve fits of mixed quality, noted in brackets.

`Cc1ccc(NC(=O)c2ccc(S(=O)(=O)N3CCOCC3)cc2)c(C)c1`: the half-maximal activity concentration (AC50) under setting [1] is 0.0891 µM [rising, full curve, poor fit].

As to `C/C(=N\NC(=O)c1c(Cl)cnn1C)c1ccc(NC(=O)c2ccncc2)cc1`, the AC50 under setting [1] is 18.4 µM [falling, single point]. Same read-out and setting: then `Cc1ccc(Nc2ncnc3sc(C)c(C)c23)cc1C`, with 29.1 µM [falling, single point]; and `O=C(COc1cccc2c1CCN(Cc1ccc(Br)cc1)C2=O)N1CCOCC1`, with 7.94 µM [falling, partial curve]; and `N/C(=N\C(=S)Nc1ccccc1)c1ccccc1`, with 10 µM [falling, single point]. Same read-out and setting: for `COCCNc1c(-c2ccc(O)cc2)nc2ccc(Cl)cn12` the value was 2.31 µM [falling, partial curve, poor fit].

Turning to `O=C(NCc1ccco1)c1ccc2ccccc2c1`, the concentration at half-maximal activity (AC50) under setting [1] is 16.4 µM [falling, partial curve]. For `CCc1nnc(NC(=O)CSc2nnc(-c3c[nH]c4ccccc34)n2CC)s1`, the AC50 under setting [1] was 0.631 µM [falling, full curve, poor fit]. Regarding `O=C(O)CSCC(=O)Nc1cccc(C(F)(F)F)c1`, the AC50 under setting [1] was 20.6 µM [rising, single point]. As for `S=C(Nc1cccc(Cl)c1)NC1CCCCC1`, the AC50 under setting [1] is 1.41 µM [rising, partial curve, poor fit]. In the case of `CCCCN(Cc1nc2ccccc2c(=O)[nH]1)C(=O)CN1C(=O)NC2(CCCCC2)C1=O`, under setting [1], the concentration at half-maximal activity (AC50) was 1.64 µM [rising, full curve, poor fit]. Regarding `COc1cc(Br)c(/C=C/c2ccc3cccc(O)c3n2)cc1OC`, the AC50 under setting [1] was 7.08 µM [rising, full curve, poor fit] and the AC50 under setting [2] is 10 µM [falling, partial curve, poor fit]. Consider `CCCCN(C)CCNC(=O)c1ccc(Cn2c(=S)[nH]c3ccc(Br)cc3c2=O)cc1`, for which the AC50 under setting [1] was 7.08 µM [falling, partial curve, poor fit].

For `CCOC(=O)c1cc(-c2ccccc2)nc2c1c(C)nn2-c1ccccn1`, under setting [1], the AC50 was 0.00517 µM [rising, full curve, poor fit].

On to `CCOC(=O)c1ccc(NCc2ccc(N(C)C)cc2)cc1`, for which, under setting [1], the AC50 is 0.282 µM [falling, full curve]. For the molecule `Cn1cccc1/C=N/n1cnnc1`, the AC50 under setting [1] is 23.1 µM [rising, single point]. Still for that read-out and setting: then `COc1ccc(Nc2nc3ccc(C)cn3c(=O)c2/C=N/O)cc1`, with 5.01 µM [rising, full curve, poor fit]. `O=C(Cc1coc2ccc3ccccc3c12)Nc1nnc(C2CC2)s1`: the AC50 under setting [1] was 7.08 µM [falling, partial curve, poor fit]. Same read-out and setting: for `Cc1nn(CC(=O)NCCc2ccccc2)c(=O)c2nn(-c3ccccc3)c(C)c12` the value was 15.8 µM [rising, single point]; for `COc1ccc(-c2nnc(SCC(=O)NCc3cccs3)n2C)cc1`, 23.1 µM [rising, single point]. `CCc1nc2ccc(C(=O)N3CCN(c4cc(C)ccc4C)CC3)cc2nc1CC`: the AC50 under setting [2] was 14.1 µM [rising, partial curve, poor fit]. Regarding `CC(=O)NCCNC(=O)c1ccc(Sc2ccccc2)c([N+](=O)[O-])c1`, the half-maximal activity concentration (AC50) under setting [1] was 0.794 µM [rising, full curve, poor fit]. The same measure, in the same setting: then `O=[N+]([O-])c1ccc2nc(CCCO)[nH]c2c1`, with 20 µM [rising, partial curve, poor fit]. `Cc1nc2c(-c3ccc(F)cc3)c(C)nn2c(N2CCOCC2)c1C`: the AC50 is, setting by setting: under setting [1], 12.6 µM [rising, partial curve]; under setting [2], 3.98 µM [falling, partial curve, poor fit]. Take `CCOC(=O)CSc1nnc(CSc2nc3ccccc3c(=O)[nH]2)n1-c1ccccc1`: the AC50 under setting [1] was 13 µM [falling, partial curve, poor fit]. Same read-out and setting: for `CC1=C(C#N)C(c2cccnc2)C2=C(CC(c3ccc(Cl)cc3)CC2=O)N1` (stereo unspecified) the value was 16.4 µM [falling, single point]. `NC(=O)N/N=C/c1cc(Br)ccc1OCC(=O)NCc1ccccc1`: under setting [2], the AC50 is 3.66 µM [rising, full curve, poor fit]. For the molecule `Cc1onc(-c2ccccc2)c1C(=O)NC(C)C`, the AC50 under setting [1] was 25.9 µM [rising, partial curve, poor fit]. On to `Cc1cccc(-n2ncc(Cl)c(Cl)c2=O)c1`, for which the AC50 reads like this: under setting [1], 10 µM [falling, partial curve]; under setting [2], 11.2 µM [rising, partial curve, poor fit]. `CCc1nc2sc3c(c2c(=O)n1NC(=O)CCl)CCCC3`: the AC50 under setting [1] was 29.1 µM [falling, single point]. As for `CCn1cc(C(=O)Nc2ccc3c(c2)OCCO3)c2cc(OC)c(OC)cc2c1=O`, the AC50 under setting [1] was 35.5 µM [falling, single point].

In the case of `CCOC(=O)N1CCC(NC(=O)C2CCN(S(=O)(=O)N3CCCC3)CC2)CC1`, under setting [1], the AC50 was 0.562 µM [rising, full curve, poor fit].

On to `CCCCc1ccc(-c2csc(/C(C#N)=C\c3ccco3)n2)cc1`, for which the AC50 under setting [1] was 23.1 µM [rising, single point]. On the same count and under the same terms, then `C[C@H](CO)NC(=O)[C@@H]1C[C@H]1[C@@H](NP(=O)(c1ccccc1)c1ccccc1)c1ccccc1`, with 9.2 µM [rising, partial curve, poor fit]; and `CCCCCCC1CC(=O)NC(=O)N1` (stereo unspecified), with 12.6 µM [rising, single point].

Turning to `CCCCCSc1nnc(-c2ccccc2NC(C)=O)c(=O)[nH]1`, under setting [1], the AC50 is 10 µM [falling, partial curve, poor fit]. On to `COc1ccc2nc(NC(=O)C3CCN(S(=O)(=O)c4cccc5nsnc45)CC3)sc2c1`, for which, under setting [1], the concentration at half-maximal activity (AC50) was 10 µM [falling, partial curve, poor fit]. The same measure, in the same setting: for `COc1ccc(Cl)cc1NC(=S)NNC(=O)c1cccs1` the value was 35.5 µM [falling, single point]. `COc1cc(CN(C2CC2)S(=O)(=O)c2ccccc2Br)cc(OC)c1`: the AC50 under setting [1] is 4.11 µM [rising, full curve, poor fit]. For `Cc1ccc(C)c(OCC(=O)Nc2ccc(S(=O)(=O)N3CCN(C)CC3)cc2)c1`, the AC50 under setting [1] was 0.411 µM [rising, full curve, poor fit]. On the same count and under the same terms, for `Cc1cc(Cl)cc(C)c1OCC(=O)N1CCN(c2ncccn2)CC1` the value was 2.31 µM [rising, partial curve, poor fit]; for `C#CCCCCCCC#CCN(C)C`, 4.61 µM [rising, full curve]. The same measure, in the same setting: then `O=C(CCC(=O)NNC(=O)c1ccccc1[N+](=O)[O-])NCc1ccccc1`, with 4.47 µM [rising, full curve].

In the case of `CCOc1cc(C)nc(N2CCC(C(=O)Nc3ccccc3OCC)CC2)n1`, under setting [1], the AC50 was 3.55 µM [rising, partial curve, poor fit].

`O=C(N/N=C/c1cccnc1)c1ccc(Cn2cc([N+](=O)[O-])cn2)o1`: under setting [1], the AC50 was 15.8 µM [falling, partial curve, poor fit]. On the same count and under the same terms, then `O=C(Nc1sc2c(c1C(=O)O)CCCC2)c1cccs1`, with 2.51 µM [falling, full curve]; and `CCC1CCCCN1Cc1c(O)ccc2c(=O)c(-c3ccccc3)coc12` (stereo unspecified), with 11.2 µM [rising, partial curve, poor fit]; and `COCCNC(=O)Nc1ccc2nc(-c3cccs3)c(-c3cccs3)nc2c1`, with 16.4 µM [falling, single point]. Same read-out and setting: then `c1ccc2c(SCc3cn4ccccc4n3)nncc2c1`, with 4.47 µM [falling, partial curve, poor fit]; and `CC(OC(=O)CNC(=O)c1ccc(F)cc1)C(=O)Nc1ccc(S(=O)(=O)N2CCOCC2)cc1` (stereo unspecified), with 1.16 µM [rising, partial curve, poor fit]. Same read-out and setting: then `COC(=O)Cc1cccc2c(=O)c3ccccc3oc12`, with 0.1 µM [rising, full curve, poor fit]. Regarding `COc1ccc(N(C)C(=O)c2ccc3nc(-c4ccccc4)c(-c4ccccc4)nc3c2)cc1`, the AC50 under setting [2] was 11.2 µM [rising, partial curve, poor fit]. Regarding `CN(CC(=O)Nc1ccc(OC(F)(F)F)cc1)C(=O)c1ccc(N2CCCC2=O)cc1`, the AC50 under setting [1] is 1.64 µM [rising, partial curve, poor fit]. Same read-out and setting: for `CC(C)c1ccc(S(=O)(=O)N2CCN(CC(O)CN3CCOCC3)CC2)cc1` (stereo unspecified) the value was 23.1 µM [rising, partial curve, poor fit].

As to `CCN(CC)C(=O)[C@H]1C[C@H](CC(=O)NCc2ccco2)C(=O)N2CCc3c([nH]c4cc(-c5ccco5)ccc34)[C@]12C`, under setting [1], the AC50 was 29.1 µM [falling, single point].

Consider `COc1ccc(OC)c2c1sc(=NC(=O)C(C)(C)C)n2C`, for which the AC50 under setting [1] was 2.06 µM [rising, partial curve, poor fit]. Still for that read-out and setting: then `C=CCc1cccc2cc(C(=O)Nc3ccccc3C(=O)O)c(=O)oc12`, with 10 µM [falling, partial curve, poor fit]; and `COc1ccc(Cl)cc1NC(=O)CN(C)C(=O)C1CC(=O)N(Cc2ccc(C)cc2)C1` (stereo unspecified), with 20.6 µM [falling, partial curve, poor fit]; and `Cc1[nH]c2ccccc2c1/C=C(\C#N)C(=O)NC1CC1`, with 8.91 µM [falling, partial curve]. Same read-out and setting: for `COc1cccc(-c2ncc3ccccc3c2COC(=O)c2ccco2)c1` the value was 9.2 µM [falling, partial curve]. Consider `Cc1ccccc1OCC(O)CN1CCN(CCN2C(=O)c3cccc4cccc(c34)C2=O)CC1` (stereo unspecified), for which the half-maximal activity concentration (AC50) by setting is: under setting [1], 10.3 µM [rising, partial curve]; under setting [2], 16.4 µM [falling, partial curve, poor fit].

For `Cc1cccc(C(=O)OCC(=O)NC2CC2)c1O`, under setting [1], the AC50 was 2.31 µM [rising, partial curve, poor fit].

Broadly, the AC50 is the concentration giving half of the maximal activity seen.
